We go through 1 molecule from patent US20090047285A1 (ONCOMED PHARMACEUTICALS, published 2009).

Results are given in words; binding and its absence hold for the method and conditions named.

This test deals with Notch3 (E403Q). In words: survey of fAbs after phage display selection.

B1: 122R5 (Fab, V domains shown)
VH: QVQLVESGGGLVQPGGSLRLSCAASGFTFSDNAIHWVRQAPGKGLEWVSAISSYGSGTYYADSVKGRFTISRDNSKNTLYLQMNSLRAEDTAVYYCARPGFQFSFTFMDIWGQGTLVTVSS
VL: DIELTQPPSVSVAPGQTARISCSGDALGSKYASWYQQKPGQAPVLVIYDDKNRPSGIPERFSGSNSGNTATLTISGTQAEDEADYYCQSWDGKSKVVFGGGTKLTVLG
notes: Human fAb from phage display; also called fAb122R5; lead fAb, 122R5
Turning to B1, the binding entry is “no binding”.
